Biological target: Cannabinoid receptor 1 (Rattus norvegicus, UniProt P20272)

Amino acid sequences for entries named in this document (tags omitted).
UniProt P20272, whole entry: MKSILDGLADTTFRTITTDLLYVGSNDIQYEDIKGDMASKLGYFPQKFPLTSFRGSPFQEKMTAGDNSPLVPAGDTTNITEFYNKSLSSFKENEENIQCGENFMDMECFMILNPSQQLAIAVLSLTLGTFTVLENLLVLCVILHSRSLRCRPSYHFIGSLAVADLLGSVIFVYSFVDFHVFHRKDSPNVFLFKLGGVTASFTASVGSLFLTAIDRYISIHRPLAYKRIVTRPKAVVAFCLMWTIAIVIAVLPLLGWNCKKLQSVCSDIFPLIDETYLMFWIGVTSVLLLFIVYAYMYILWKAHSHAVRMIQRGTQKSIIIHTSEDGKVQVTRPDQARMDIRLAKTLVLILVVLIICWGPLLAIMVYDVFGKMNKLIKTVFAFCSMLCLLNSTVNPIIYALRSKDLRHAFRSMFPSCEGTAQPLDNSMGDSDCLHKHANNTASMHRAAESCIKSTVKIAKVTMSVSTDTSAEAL

Ki: 0.6 nM
SMILES: Cc1c(C(=O)NN2CCCCC2)nn(-c2ccc(Cl)cc2Cl)c1-c1ccc(I)cc1
